The supplement of paper PMC12823440, “Inhibitors supercharge kinase turnover through native proteolytic circuits” (Nature, 2025)
Where a name gives a salt, the structure may show the parent alone. Some of the results follow. Hit calls seldom repeat between salt and free forms of one compound.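 Kinases were expressed as nanoluciferase fusions in K562 cells and luminescence was read every 4 h between 2 and 18 h as percent of control, DMSO set to 100% and a positive control to 0%. A time point counts as decreased when the signal drops significantly (2 sigma). The hit call is the authors' own, does not follow from the count of time points alone, and its rule is not shown.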

The chains behind the UniProt entries cited, without tags or fusion partners. Where a name states a change or a piece, a line headed by the entry shows the natural chain unless it says otherwise.
UniProt P48730: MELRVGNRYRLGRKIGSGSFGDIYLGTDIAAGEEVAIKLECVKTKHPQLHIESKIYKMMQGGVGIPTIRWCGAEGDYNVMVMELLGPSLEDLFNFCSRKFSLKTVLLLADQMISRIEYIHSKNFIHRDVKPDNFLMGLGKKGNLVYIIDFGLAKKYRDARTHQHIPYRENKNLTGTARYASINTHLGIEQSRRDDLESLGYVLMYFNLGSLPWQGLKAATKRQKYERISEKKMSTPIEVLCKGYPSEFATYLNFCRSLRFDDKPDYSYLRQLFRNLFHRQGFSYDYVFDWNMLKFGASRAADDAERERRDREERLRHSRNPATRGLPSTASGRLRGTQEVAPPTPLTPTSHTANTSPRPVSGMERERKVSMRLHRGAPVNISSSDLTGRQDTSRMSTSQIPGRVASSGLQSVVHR

Each compound was assayed against CSNK1D (UniProt P48730) (assay: number of time points (of 5) at which kinase-Nluc abundance scored as decreased, DMSO-normalised (count); higher = more persistent destabilization). Settings: K562; 2-18 h.
With `O=C1NC(=O)C(c2cn(-c3ccccc3)nc2-c2ccc(F)cc2)N1` (configuration not stated) (10 µM) the “number of time points” value was 0. In the case of `O=[N+]([O-])c1ccc(Sc2cccc[n+]2[O-])c2nonc12` (2.5 µM), the “number of time points” value is reported as 0. For `COc1nc(-c2ccnc(NC(=O)C3CC3)c2)sc1C(N)=O` [GSK-3β inhibitor 2] (10 µM), the “number of time points” value was 0. For `CCN1/C(=C/C(C)=O)Sc2ccc(OC)cc21` (10 µM), the “number of time points” value was 0. `Nc1cccc(S(=O)(=O)N2CCCN(S(=O)(=O)c3ccc4c(c3)OCCO4)CC2)c1` (10 µM) was tested, and the “number of time points” value was 0. For `Nc1ncc(-c2ccc(C(=O)N3CCNCC3)cc2)nc1-c1ccc(C(F)(F)F)cc1` (10 µM), the “number of time points” value was 0. With `CC[C@H](Nc1ncnc2[nH]cnc12)c1oc2ccccc2c(=O)c1-c1cccc(F)c1` [Tenalisib] (10 µM) the “number of time points” value was 0. With `CC(C)(O)[C@@H]1CC[C@](C)([C@H]2[C@@H](O)C[C@@]3(C)[C@@H]4C[C@H](O[C@@H]5O[C@H](CO)[C@@H](O)[C@H](O)[C@H]5O)[C@H]5C(C)(C)[C@@H](O[C@@H]6OC[C@@H](O)[C@H](O)[C@H]6O[C@@H]6O[C@H](CO)[C@@H](O)[C@H](O)[C@H]6O)CC[C@@]56C[C@@]46CC[C@]23C)O1` [Astragaloside VI] (10 µM) the “number of time points” value was 0. `CC(=O)Nc1nc2ccc(-c3cnc(C)c(NC(=O)OC4CCCCC4)c3)cc2s1` (10 µM) was tested, and the “number of time points” value was 0. For `COc1ccccc1/C=C1\C(=O)Nc2ccccc21` (10 µM), the “number of time points” value was 0. In the case of `CC1(N)CCN(c2cnc3c(-c4cccc(Cl)c4Cl)[nH]nc3n2)CC1` (2.5 µM), the “number of time points” value is reported as 0. In the case of `CC(C)C[C@H](NC(=O)[C@H](CCCCN)NC(=O)[C@H](CO)NC(=O)[C@@H](N)CC(C)C)C(N)=O` [LSKL, Inhibitor of Thrombospondin (TSP-1) (TFA)] (10 µM), the “number of time points” value is reported as 0. `CN1CC[C@H](c2c(O)cc(O)c3c(=O)cc(-c4ccc(C(F)(F)F)cc4Cl)oc23)[C@H]1CO` [(2S,3R)-Voruciclib (hydrochloride)] (2.5 µM) was tested, and the “number of time points” value was 0. In the case of `C[C@H]1[C@H](OC(=O)CCC(=O)O)O[C@@H]2O[C@@]3(C)CC[C@H]4[C@H](C)CC[C@@H]1[C@@]24OO3` [Artesunate] (2.5 µM), the “number of time points” value is reported as 0. `c1ccc(-c2nn3c(c2-c2ccnc4cc(OCCN5CCOCC5)ccc24)CCC3)nc1` (10 µM) was tested, and the “number of time points” value was 0. `COc1cc(N2CCC(N(C)C)CC2)ccc1Nc1ncc(Cl)c(Nc2ccccc2P(C)(C)=O)n1` (2.5 µM) was tested, and the “number of time points” value was 0. With `Cc1ccc(-c2ncn(-c3ccc(Nc4nccc(-c5cccc(N6CCOCC6)c5)n4)cc3)n2)cn1` (10 µM) the “number of time points” value was 0. In the case of `CC[C@@H]1[C@H](F)C(=O)N[C@@H]1COc1nccc2cc(C(N)=O)c(OC)cc12` (10 µM), the “number of time points” value is reported as 0. With `O=C1NC(=O)/C(=C/c2ccc(-c3ccc(F)cc3O)o2)S1` (10 µM) the “number of time points” value was 0. For `Cc1cc(Nc2cc(CN3CCOCC3)c3nc(C)c(Cc4ccc(Cl)cc4F)n3n2)n[nH]1` [Gandotinib] (2.5 µM), the “number of time points” value was 0. `CN(C)C(=O)c1ccc(S(=O)(=O)c2ccc(NC(=O)[C@@](C)(O)C(F)(F)F)c(Cl)c2)cc1` (10 µM) was tested, and the “number of time points” value was 0. In the case of `CCc1cccc(CC)c1NC(=O)c1nn(C)c2c1CCc1cnc(Nc3ccc(C(=O)NC4CCN(C)CC4)cc3OC(F)(F)F)nc1-2` (2 µM), the “number of time points” value is reported as 0. In the case of `O=C(Nc1ccc(Cl)cc1)C1CCCN(C(=O)c2cccc(-c3ccco3)c2)C1` (configuration not stated) (2.5 µM), the “number of time points” value is reported as 0. For `CN(C)Cc1cccc(N=C(c2ccccc2)c2c(O)[nH]c3cc(C(=O)N(C)C)ccc23)c1` (10 µM), the “number of time points” value was 0. For `OCCN(CCO)c1ccc(C(c2ccc(Cl)cc2)c2ccc(N(CCO)CCO)cc2)cc1` (10 µM), the “number of time points” value was 0. In the case of `CCOc1ccccc1C=C1C(=O)Nc2ccccc21` (10 µM), the “number of time points” value is reported as 0. In the case of `COc1ncc(Nc2ncc([C@@H](C)N3CCN(S(C)(=O)=O)CC3)cc2-c2nc(C)nc(N)n2)cc1F` (10 µM), the “number of time points” value is reported as 0. In the case of `O=C(CO)N1CCC(c2n[nH]c(-c3ccc(Cl)cc3)c2-c2ccncn2)CC1` (10 µM), the “number of time points” value is reported as 0. In the case of `Cn1ncc(Cl)c1-c1cc(C(=O)N[C@H](CN)Cc2ccc(F)c(F)c2)sc1Cl` (10 µM), the “number of time points” value is reported as 0. For `O=c1ccc2ccc(O)c(O)c2o1` [Daphnetin] (10 µM), the “number of time points” value was 0. For `O=C(Nc1ccc(Cl)c(Cl)c1)Nc1ccc2nnsc2c1` (10 µM), the “number of time points” value was 0. In the case of `O=C(O)c1cc(O)c2c(c1)[C@@H]([C@H]1c3cc(C(=O)O)cc(O)c3C(=O)c3c(O[C@@H]4O[C@H](CO)[C@@H](O)[C@H](O)[C@H]4O)cccc31)c1cccc(O[C@@H]3O[C@H](CO)[C@@H](O)[C@H](O)[C@H]3O)c1C2=O` [Sennoside B] (2.5 µM), the “number of time points” value is reported as 0.
